Measured values taken from patent US7202274B2, “Cyclic hemiacetal derivative and use thereof” (Senju Pharmaceutical Co., Ltd., priority 2002, dated 2007).
At least one compound was matched to its structure with a doubt left.

Columns and labels:
[1] = test system: Ganglion cells of retina; test: Effect on rat retinal ischemic disorder (ganglion cell count); settings: 100 mg/kg orally 15 min before ischemia and immediately after release, 55 min ischemia, 7 days after reperfusion, p<0.05 vs control (FIG. 3)
[2] = test system: lenses obtained from SD rats; test: Lens opacity preventive action in rat lens culture (calcium ionophore A23187); settings: Compound 1 100 μM in culture solution, A23187 10 μM, culture for 4 days; p<0.01 vs control group (FIG. 1)

CC(C)C[C@H](NC(=S)Nc1ccccc1)C(=O)N[C@H]1CCOC1O (stereo partly drawn) [Compound 1, (2S)-4-methyl-2-(((phenylamino)thioxomethyl)amino)-N-((3S)-tetrahydro-2-hydroxy-3-furanyl)pentanamide]
decrease due to ischemia in the ganglion cell count [1]: significantly suppressed the decrease due to ischemia in the ganglion cell count
opacity of the lens [2]: the opacity was significantly suppressed
